# Library screening results

Mtb growth Cornell: 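Whole-cell assay for inhibitors of Mycobacterium tuberculosis growth, labelled Cornell in the record; the read-out is not stated. The concentration is filed as 10 mM, unlikely as a test dose, so the dose is not known. Higher means stronger inhibition (inferred from two other growth screens of the library). Of about 53,000 compounds tested this way, about 900 (1.7%) reached 50% or more in at least one test.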
Mtb heat-shock: 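Assay on Mycobacterium tuberculosis, filed only as a heat shock assay from Cornell; the read-out is not stated. The concentration is filed as 10 mM, unlikely as a test dose, so the dose is not known. The record gives no direction; compounds that gave an IC50 in retests scored well above the rest, so higher reads as stronger inhibition. Size under these conditions: about 69,000 compounds, about 930 of them at 50% or above in at least one test.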

Results are given as percent effect.
The controls that fix the scale are not given in the record; negative values are as filed.
The compounds are a random part of those screened.
A dash means the value is not listed here; it may have been measured.

Compound	Mtb growth Cornell	Mtb heat-shock
COC(C)c1nc(CN2CCCNCC2)cs1 (centres unmarked)	-2.734%	-8.677%
COc1cc(C)c(CNC(C)c2csc(C3CC3)n2)cc1OC (centres unmarked)	-8.878%	3.338%
N#Cc1cc(CSCCN2CCOCC2)ccc1F	-	-22.76%
CCc1nccn1C1CCCN(C(=O)c2ccnc(N(C)C)c2)C1 (centres unmarked)	2.15%	-2.84%
COc1ccc(CN2CCn3cncc3C2)cc1Cn1cncn1	-	7.99%
CC(C)(C)n1cc(C(=O)O)c(-c2ccc(F)cc2F)n1	-	6.144%
O=C(Cc1ccc(-n2cnnn2)cc1)Nc1nncs1	28.66%	9.878%
O=C1COC2(COCCN(c3cnccn3)C2)CN1c1cccc(F)c1 (centres unmarked)	-34.2%	0.2161%
COC(=O)CN1CCCn2nc(CCC(=O)N3CCCC3)cc2C1	-4.331%	-2.643%
Fc1ccccc1CN1CCC(c2noc(-c3ccccn3)n2)CC1	-10.54%	13.63%
CNc1cc(N2CCCC2CNCc2cscn2)ncn1 (centres unmarked)	-	8.126%
CCCc1nc(NCCCOC)c2c(n1)c(C)nn2CC	-	-13.02%
Cc1cc(CNC(=O)NC(C)c2ccc(N3CCOCC3)cc2)no1 (centres unmarked)	-27.63%	12.8%
CSCCC(C)(O)CNC(=O)c1ccsc1 (centres unmarked)	18.1%	0.6028%
Cc1ccc(-c2nc(CNCC3CN(C)CCO3)co2)c(C)c1 (centres unmarked)	15.27%	-20.33%
O=C(NC1(c2nccs2)CCCC1)c1cc(C2CC2)[nH]n1	-3.797%	5.348%
Cc1csc(N2CCN(C(=O)CCC(=O)c3ccc(C)s3)CC2)n1	-1.84%	18.9%
O=C(O)C(F)(F)F.O=C(O)C(F)(F)F.[H][C@@]12COC[C@]1(COc1ccccn1)CN(c1ncc(F)cn1)C2	-6.442%	-29.7%
CC(C)CNS(=O)(=O)c1ccc(C(=O)N(C)CCc2cn[nH]c2)cc1	6.654%	-29.07%
Cc1nc(C)n(CC2CCCN2Cc2cn3ccccc3c2C#N)n1 (centres unmarked)	20.05%	10.5%
Cc1cccc(Oc2ccccc2CNC(=O)C2CCNC(=O)C2)c1 (centres unmarked)	9.792%	-3.244%
CC(C)(C)c1noc(OCC(=O)NCC(F)(F)F)n1	4.088%	-13.67%
O=C(CCc1ccc(O)cc1)N1CCC(Cc2ccc(CO)cc2)C1 (centres unmarked)	-26.15%	5.894%
COc1ccc(-c2nnc(C(C)N3CCOCC3)o2)cc1 (centres unmarked)	-28.42%	-4.279%
CNS(=O)(=O)c1cccc(C(C)NCc2ccccc2OC)c1 (centres unmarked)	6.284%	-35.65%
CC(C)c1noc([C@@H]2C[C@H](NS(=O)(=O)Cc3ccccc3)CN2C)n1	0.1185%	2.677%
O=C(CCS(=O)(=O)c1ccccc1)NCCCn1cccn1	8.596%	10.15%
Cn1ccnc1CN1CCCC2(CCN(CC3CCCO3)CC2)C1.O=C(O)C(F)(F)F.O=C(O)C(F)(F)F (centres unmarked)	11.62%	-12.31%
CN(Cc1cnn(C)c1)C(=O)CN1CCCC(Cn2cncn2)C1 (centres unmarked)	-	-24.08%
Cc1cc(NC(=O)c2ccc(C)c(F)c2)[nH]n1	32.04%	1.383%
CC(C)Cc1noc(CN(C)C2CCCC2)n1	-	-67.81%
CCCc1noc(CCC(=O)N2CCCC2c2ccsc2)n1 (centres unmarked)	22.08%	7.855%
O=C(O)C(F)(F)F.[H][C@@]12CN(CC3CCCC3)C[C@]1([H])OCCN2c1ncc(F)cn1	-0.8855%	17.06%
Cc1ncc(C(=O)N2CC(C(=O)N3CCOCC3)C2)c(C)n1	-7.514%	0.627%
Cc1cc2ccccc2n1CC(=O)NC(C)C(=O)N1CCOCC1 (centres unmarked)	20.65%	5.778%
COCC1CN(CC2CC2)Cc2nccn2C1.O=C(O)C(F)(F)F (centres unmarked)	6.932%	-7.797%
Cc1cc(NCc2cn(C)nc2-c2cccnc2)n(C)n1	34.58%	-9.533%
CN1CCN(c2cc(CNC(=O)Cn3cccn3)ccn2)CC1	-	-54.84%
CCc1cc(NCCNC(C)=O)nc(N2CCOCC2)n1	4.046%	11.68%
Fc1ccc(CNc2ccccc2Cn2cncn2)cc1	-	27.91%
c1sc(C2CCCCC2)nc1CN1CCn2c(nnc2C2CC2)C1	16.62%	7.076%
Cc1nn(C)c(Oc2ccccc2)c1CNC1CCCCNC1=O (centres unmarked)	-7.334%	0.06176%
Fc1ccccc1CN(CCCn1ccnc1)CC1CCOC1.O=C(O)CC(O)(CC(=O)O)C(=O)O (centres unmarked)	-23.94%	-23.62%
CCOc1ccc(CN(C)C(=O)NC(C)c2nncn2C)cc1 (centres unmarked)	2.047%	34.7%
O=C(O)C(F)(F)F.O=C(O)C(F)(F)F.[H][C@@]12CN(Cc3cccnc3)C[C@]1([H])[C@@H](OC)CCN2S(=O)(=O)N(C)C	6.971%	8.813%
Cc1cccc(Nc2ccc(C3CCN(Cc4ncc[nH]4)CC3)nc2)n1	12.85%	4.819%
CCc1cnc(CN(C)C2CCN(CCCNS(C)(=O)=O)C2)o1 (centres unmarked)	-10.06%	7.033%
CC(=O)Nc1nc(C(=O)NCc2ccnc(N3CCCC3)c2)cs1	-1.447%	-27.12%
CC(C)COCC(NC(=O)CSc1nnc[nH]1)c1ccco1 (centres unmarked)	-	7.367%
CCn1ccnc1CN(C)c1cc(N(C)C)ncn1	24.4%	-13.28%
CCc1c(C)nc2n(c1=O)CC(C(=O)Nc1nc3c(s1)CCCC3)CS2 (centres unmarked)	26.45%	14.87%
CC(NC(=O)CCCc1nc(C(C)(C)C)no1)c1ccccn1 (centres unmarked)	-	-24.67%
[H][C@]12CCN(C(=O)c3ccsc3)[C@@]1([H])CCC(=O)N2Cc1csc(C)n1	-5.927%	11.22%
Cc1cc(C)cc(OCC(O)CN2CCN(c3nccs3)CC2)c1 (centres unmarked)	-26.37%	-32.99%
CN(CC(C)(CO)CO)C(=O)Nc1cc(F)cc(Cl)c1	32.24%	7.779%
O=C(O)C(F)(F)F.[H][C@@]12CCN(C(=O)c3cccn3C)C[C@]1([H])[C@@H](CN(C)C)OC2	-34.27%	-2.688%
CCc1nnc2n1CCN(Cc1nc3c(F)cccc3[nH]1)C2	-20.14%	-30.99%
Cc1cc(C)nc(N2CCC(c3cncc(-n4ccnc4)n3)CC2)n1	-	-4.877%
CC(C)NC(=O)NCc1ccccc1NS(=O)(=O)c1ccccc1	4.113%	21.89%
CCCN1CCC(CC(=O)N[C@H](C(=O)O)c2cccc(F)c2F)CC1	-	-6.096%
CCCN(C)CC1CCN(c2ncc(Br)cn2)C1 (centres unmarked)	-10.22%	-8.908%
CC(C)c1cc(C(=O)NCc2nc(-c3ccc(F)cc3)n[nH]2)n[nH]1	17.8%	6.589%
CNS(=O)(=O)c1cccc(C(C)NCc2nccn2C(C)C)c1 (centres unmarked)	10.12%	-13.81%
O=C(NCC(O)c1ccc(F)c(F)c1)c1ccccc1F (centres unmarked)	10.17%	-2.812%
CN1CCN(S(=O)(=O)C2CC2)Cc2cccnc21	7.11%	9.479%

5 of the entries, repeated:

Compound	Mtb growth Cornell	Mtb heat-shock
[H][C@]12CCN(C(=O)c3ccsc3)[C@@]1([H])CCC(=O)N2Cc1csc(C)n1	-5.927%	11.22%
CN1CCN(c2cc(CNC(=O)Cn3cccn3)ccn2)CC1	-	-54.84%
CC(C)NC(=O)NCc1ccccc1NS(=O)(=O)c1ccccc1	4.113%	21.89%
CC(C)Cc1noc(CN(C)C2CCCC2)n1	-	-67.81%
COC(=O)CN1CCCn2nc(CCC(=O)N3CCCC3)cc2C1	-4.331%	-2.643%

From ChEMBL document CHEMBL3988442, “University of Dundee, Small-Polar-MMV Screening Library” (2021).